Results are given in words; binding and its absence hold for the method and conditions named. In cells and extracts the contact can be indirect. Some entries that bind do so weakly or less than the wild type. Tags and fused reporters may be left off the sequences shown.
Molecular target: T1, N-terminally FLAG-tagged wt viperin (human) (UniProt Q8WXG1)
T1 sequence: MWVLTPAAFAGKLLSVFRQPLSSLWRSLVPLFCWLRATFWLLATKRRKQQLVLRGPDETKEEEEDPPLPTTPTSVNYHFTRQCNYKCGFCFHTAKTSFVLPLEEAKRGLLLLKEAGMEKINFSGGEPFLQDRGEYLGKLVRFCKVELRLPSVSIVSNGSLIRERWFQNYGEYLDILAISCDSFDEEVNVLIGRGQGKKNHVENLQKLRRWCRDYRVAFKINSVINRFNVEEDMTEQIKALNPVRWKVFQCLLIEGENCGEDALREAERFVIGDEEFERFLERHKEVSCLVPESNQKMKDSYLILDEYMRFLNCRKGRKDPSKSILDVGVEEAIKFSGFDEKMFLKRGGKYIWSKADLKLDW
Experiment: co-IP

Sequences of proteins named here, by UniProt entry; tags and fusion partners are left off.
UniProt Q92538: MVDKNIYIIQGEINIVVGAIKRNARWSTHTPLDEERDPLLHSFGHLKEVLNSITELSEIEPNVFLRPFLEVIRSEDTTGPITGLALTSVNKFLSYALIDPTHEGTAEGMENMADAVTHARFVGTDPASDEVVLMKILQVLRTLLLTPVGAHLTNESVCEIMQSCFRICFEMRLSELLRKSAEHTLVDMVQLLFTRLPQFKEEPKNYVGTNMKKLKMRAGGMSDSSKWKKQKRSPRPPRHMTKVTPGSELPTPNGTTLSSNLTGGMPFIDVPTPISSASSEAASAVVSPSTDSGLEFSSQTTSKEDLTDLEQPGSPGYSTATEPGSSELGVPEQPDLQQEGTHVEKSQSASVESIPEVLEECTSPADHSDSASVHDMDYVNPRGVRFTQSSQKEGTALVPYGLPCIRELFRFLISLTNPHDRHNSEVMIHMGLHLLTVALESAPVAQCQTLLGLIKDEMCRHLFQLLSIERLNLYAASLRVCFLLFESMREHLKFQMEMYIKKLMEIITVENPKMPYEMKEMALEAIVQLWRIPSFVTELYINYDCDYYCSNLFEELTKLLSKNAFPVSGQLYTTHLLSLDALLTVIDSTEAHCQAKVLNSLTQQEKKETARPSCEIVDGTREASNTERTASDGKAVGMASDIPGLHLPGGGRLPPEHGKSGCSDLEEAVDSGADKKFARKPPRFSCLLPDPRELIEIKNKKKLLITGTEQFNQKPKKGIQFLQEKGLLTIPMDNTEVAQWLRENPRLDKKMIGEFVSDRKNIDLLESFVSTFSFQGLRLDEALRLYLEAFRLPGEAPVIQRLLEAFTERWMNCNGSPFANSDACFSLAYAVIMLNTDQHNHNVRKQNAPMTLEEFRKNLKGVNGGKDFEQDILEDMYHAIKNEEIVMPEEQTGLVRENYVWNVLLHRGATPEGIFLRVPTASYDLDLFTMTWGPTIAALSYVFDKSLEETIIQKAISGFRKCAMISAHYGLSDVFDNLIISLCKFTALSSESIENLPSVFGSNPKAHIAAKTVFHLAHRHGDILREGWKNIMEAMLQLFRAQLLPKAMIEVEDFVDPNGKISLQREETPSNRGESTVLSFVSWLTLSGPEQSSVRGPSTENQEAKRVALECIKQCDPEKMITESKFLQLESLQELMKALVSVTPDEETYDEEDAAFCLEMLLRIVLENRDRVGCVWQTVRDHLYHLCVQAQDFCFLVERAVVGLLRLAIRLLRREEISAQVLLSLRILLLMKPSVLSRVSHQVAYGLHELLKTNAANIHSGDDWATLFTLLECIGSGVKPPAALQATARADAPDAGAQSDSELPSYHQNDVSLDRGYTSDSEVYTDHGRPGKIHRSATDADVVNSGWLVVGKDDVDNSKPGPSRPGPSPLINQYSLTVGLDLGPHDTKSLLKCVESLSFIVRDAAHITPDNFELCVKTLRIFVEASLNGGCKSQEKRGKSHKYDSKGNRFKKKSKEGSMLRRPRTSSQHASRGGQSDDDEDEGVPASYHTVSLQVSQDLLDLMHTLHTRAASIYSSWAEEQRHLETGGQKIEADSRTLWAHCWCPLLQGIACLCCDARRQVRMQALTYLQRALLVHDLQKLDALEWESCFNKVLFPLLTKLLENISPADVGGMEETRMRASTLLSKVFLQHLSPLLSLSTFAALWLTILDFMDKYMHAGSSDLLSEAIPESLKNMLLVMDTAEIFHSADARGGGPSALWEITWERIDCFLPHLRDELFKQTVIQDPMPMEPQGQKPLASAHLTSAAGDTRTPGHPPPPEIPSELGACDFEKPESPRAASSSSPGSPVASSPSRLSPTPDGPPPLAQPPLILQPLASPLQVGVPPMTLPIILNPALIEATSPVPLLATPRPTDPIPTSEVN

Row | Substance | binding
1 | Golgi brefeldin A-resistant guanine nucleotide exchange factor 1 (GBF1), endogenous in HEK293T cells (from UniProt Q92538 1-1860) | binds
2 | YFP-tagged GBF1 (YFP-GBF1-wt) (from UniProt Q92538 1-1860) | binds

Reference: PMC5730767
